Measurements taken from paper PMC6382882.
These are yes or no findings as the source states them, for the method shown.

Molecular target: apo mH0ACPa, N-terminally extended A1-type ACP domain from module 5 of MLSA1 (Mycobacterium ulcerans) (UniProt Q6MZA4)
Experiment: 15N NMR nuclear spin relaxation (rotational correlation time); 15N-labelled apo mH0ACPa in phosphate buffer, 298 K, Bruker DRX500; overall rotational correlation time 8.4 ns; both purified

“apo mH0ACPa, N-terminally extended A1-type ACP domain from module 5 of MLSA1 (from UniProt Q6MZA4 11087-11185) (domain or fragment)” was tested, and the binding was “no binding (tested: 200–800 μM)”.
